Results as given in PubChem BioAssay AID1347426 (Functional Genomics Laboratory (NCATS/FGL), 2020).
The whole screen tested about 31,000 sequences, of which about 1,400 (4.5%) were called active.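 Rule for the calls: active = median seed-adjusted z-score above 1 or below -1; inactive = the rest.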 Some of the results follow.

Experiment: Novel Modifiers of Survival Motor Neuron (SMN) Protein: Gene Identification via Genome-wide siRNA Screen;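 note: luminescence tracks full-length SMN protein made from the SMN2 reporter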
Conditions: HEK293T SMN2-luciferase reporter, siRNA knockdown, 72 h; actives lie on both sides
How it was run: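 Luciferase signal, proportional to full-length SMN made from an SMN2 cDNA reporter in stable HEK293T cells, was read 72 h after siRNA reverse transfection. Values were expressed as MAD scores after non-targeting-control normalization and log10 conversion; seed analysis flagged off-targets.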
For GCCUCACUGUACAAGUAUATT against FMO1, the median seed-adjusted z-score was inactive: 0.323.
In the case of CAAUUUGACUAUACUUAUUTT against CCR1, the median seed-adjusted z-score is reported as inactive: 0.
With GUUCUUCCCUGGAUUUACATT against TMPRSS13 the median seed-adjusted z-score was inactive: 0.0584.
With GGAGCGAUUUGCUGGUGUATT against RPS16 the median seed-adjusted z-score was inactive: 0.
For AACAUUACUUGGUCUCAAATT against ICAM2, the median seed-adjusted z-score was inactive: 0.269.
With GAAUGUCAUCCGUAUUUCATT against AKR1C3 the median seed-adjusted z-score was inactive: -0.00538.
With AGGUCCUACGCUUCCAAAATT against CYP2D6 the median seed-adjusted z-score was inactive: -0.0488.
With GCUCACUUCCGGAAUACAATT against KMO the median seed-adjusted z-score was inactive: 0.443.
For CCAUUGUUCCAGACUUCUUTT against CMBL, the median seed-adjusted z-score was inactive: 0.
With GGCUAUGCUUGUGAAGUUATT against NKRF the median seed-adjusted z-score was inactive: -0.0368.
In the case of GGCUUAUGAGGAUAAAAAUTT against GLO1, the median seed-adjusted z-score is reported as inactive: -0.0827.
With GGCUGUAGGAGUUAGUCAATT against STAU1 the median seed-adjusted z-score was inactive: -0.143.
For UCAUCUUUGUCAUCGUGUATT against SMO, the median seed-adjusted z-score was inactive: -0.457.
In the case of GCCUAAGCAACGUAGCUUATT against SMC3, the median seed-adjusted z-score is reported as inactive: 0.507.
In the case of GCGUCAGGUGGAUACUAAATT against NT5C2, the median seed-adjusted z-score is reported as inactive: -0.687.
In the case of GGAGCUUUGUCAAGAAGAUTT against FKBPL, the median seed-adjusted z-score is reported as active: -1.11.
In the case of GGCUUUCUCUCAGACAACUTT against SSTR1, the median seed-adjusted z-score is reported as inactive: 0.285.
In the case of GAGUCACAAAAAGUCCAGATT against WFDC12, the median seed-adjusted z-score is reported as inactive: 0.
For CGACAAGAUCAAAUACCCATT against LZTR1, the median seed-adjusted z-score was inactive: 0.293.
With GAUCCGCGUUGGAACCAAUTT against RCOR2 the median seed-adjusted z-score was inactive: -0.129.
In the case of GGAAUGACUGAAUCUGAUATT against FXR1, the median seed-adjusted z-score is reported as inactive: 0.131.
For CGCUAUACCUACCAGCAAATT against DNAJB12, the median seed-adjusted z-score was inactive: 0.
With CAAGGGACCUUAUAGGAGATT against CDC25A the median seed-adjusted z-score was inactive: 0.235.
In the case of GCCUUGCUGUUAAAGGGCATT against PARP2, the median seed-adjusted z-score is reported as inactive: -0.366.
With GGGACGUGUUUAUCAAGGATT against OSBPL5 the median seed-adjusted z-score was inactive: 0.638.
In the case of AGGUGUCUGAGAUUAAGAATT against FOXRED1, the median seed-adjusted z-score is reported as inactive: 0.447.
With AGCUUACGGUUCUGAAGGATT against BRUNOL4 the median seed-adjusted z-score was inactive: 0.
In the case of CUGUGACACUGAGUCCCGATT against VAX2, the median seed-adjusted z-score is reported as inactive: -0.71.
For CAGAAGAAGUGUUUCAGAATT against BCR, the median seed-adjusted z-score was inactive: 0.143.
In the case of CAACGGUAUGAAUAACAAUTT against PIK3R1, the median seed-adjusted z-score is reported as inactive: 0.196.
With AGCUACGAGUUCAUGCGGATT against PLEKHJ1 the median seed-adjusted z-score was inactive: -0.213.
In the case of GAUCGAAACCAUAAUAGAUTT against BAZ1B, the median seed-adjusted z-score is reported as inactive: 0.00593.
For GCACUUAUGCUGAUGAAGATT against ZNF398, the median seed-adjusted z-score was inactive: 0.119.
For GGACCCUGAGAAAACCAUATT against FKBP10, the median seed-adjusted z-score was inactive: 0.229.
In the case of GGCUCUGUUUAAUCGACUATT against RBPJ, the median seed-adjusted z-score is reported as inactive: -0.452.
With CAGCAGUGAUUAUGAGUGUTT against ZNF671 the median seed-adjusted z-score was inactive: -0.0551.
For CAUUCAUCAUCCACCCAGATT against MUPCDH, the median seed-adjusted z-score was inactive: -0.329.
In the case of ACAUUUUUACCAUCAGUAATT against TRPM2, the median seed-adjusted z-score is reported as inactive: 0.226.
In the case of AUGACGACAUUGACUCUUATT against RAD9A, the median seed-adjusted z-score is reported as inactive: -0.0564.
In the case of CGAAAAUUGAUGCAUGUGATT against NDUFB5, the median seed-adjusted z-score is reported as inactive: -0.122.
With GCAAGCAAGUCCUAACAUUTT against RAB5A the median seed-adjusted z-score was inactive: 0.244.
With GGCAGAAAGUCCAAAGGAATT against FXYD1 the median seed-adjusted z-score was inactive: 0.276.
For CACUUUGUCUGUGACCGAATT against UQCRC1, the median seed-adjusted z-score was inactive: -0.284.
With GCAGAUCCGACAGAACUGATT against P2RY2 the median seed-adjusted z-score was inactive: 0.119.
With GAACGAUUCUUAACGUGGATT against NARS the median seed-adjusted z-score was inactive: -0.361.
In the case of GAAAAGACAUGGAGUUAUUTT against DYRK3, the median seed-adjusted z-score is reported as inactive: 0.358.
With CCCUAGAGCCUGACUUUAATT against DAG1 the median seed-adjusted z-score was inactive: -0.104.
For GUAUCUUGAUAGUACCCAATT against NFE2L3, the median seed-adjusted z-score was inactive: 0.118.
In the case of GACCUGCUCUUACAUUUAATT against IL13, the median seed-adjusted z-score is reported as inactive: 0.435.
For AGACAGACGAAGAAACUAATT against POLR3D, the median seed-adjusted z-score was inactive: -0.434.
With CCAAAGCUUUCCUAAUGAATT against RAB32 the median seed-adjusted z-score was inactive: -0.112.
With GAAUCCACCUUCGACCUGATT against HMX1 the median seed-adjusted z-score was active: 1.3.
In the case of AGUUCAGGGUAUUUAAUAATT against ITLN1, the median seed-adjusted z-score is reported as inactive: 0.23.
For CGACACUGCCGAAUGGAAATT against SRCRB4D, the median seed-adjusted z-score was inactive: -0.0568.
